# Measured values from paper PMC7053343, “Small molecule NSC1892 targets the CUL4A/4B-DDB1 interactions and causes impairment of CRL4^DCAF4 E3 ligases to inhibit colorectal cancer cell growth” (International Journal of Biological Sciences, 2020).
# By UniProt entry, the sequences of proteins in these tests, tags left out.
# UniProt Q13619: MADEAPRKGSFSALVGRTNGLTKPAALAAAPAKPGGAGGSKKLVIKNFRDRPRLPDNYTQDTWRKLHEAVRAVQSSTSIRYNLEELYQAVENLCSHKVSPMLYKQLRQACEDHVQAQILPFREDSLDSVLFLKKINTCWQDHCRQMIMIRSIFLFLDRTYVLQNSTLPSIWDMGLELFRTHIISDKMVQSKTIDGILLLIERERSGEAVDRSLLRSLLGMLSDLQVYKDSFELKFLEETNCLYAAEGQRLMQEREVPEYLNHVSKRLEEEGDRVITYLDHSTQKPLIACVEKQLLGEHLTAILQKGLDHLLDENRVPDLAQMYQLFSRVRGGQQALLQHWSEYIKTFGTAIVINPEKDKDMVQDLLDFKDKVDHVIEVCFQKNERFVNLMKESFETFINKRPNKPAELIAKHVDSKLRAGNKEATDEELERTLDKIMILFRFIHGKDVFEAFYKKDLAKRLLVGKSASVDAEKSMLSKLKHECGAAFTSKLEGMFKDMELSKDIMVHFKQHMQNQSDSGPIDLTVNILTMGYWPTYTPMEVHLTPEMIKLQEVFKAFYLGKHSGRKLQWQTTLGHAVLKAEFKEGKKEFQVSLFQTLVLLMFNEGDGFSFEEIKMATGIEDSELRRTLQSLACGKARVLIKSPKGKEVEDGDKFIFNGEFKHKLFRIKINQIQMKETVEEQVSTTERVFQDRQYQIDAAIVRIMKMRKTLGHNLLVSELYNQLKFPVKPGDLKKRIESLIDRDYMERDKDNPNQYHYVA
# UniProt Q13620: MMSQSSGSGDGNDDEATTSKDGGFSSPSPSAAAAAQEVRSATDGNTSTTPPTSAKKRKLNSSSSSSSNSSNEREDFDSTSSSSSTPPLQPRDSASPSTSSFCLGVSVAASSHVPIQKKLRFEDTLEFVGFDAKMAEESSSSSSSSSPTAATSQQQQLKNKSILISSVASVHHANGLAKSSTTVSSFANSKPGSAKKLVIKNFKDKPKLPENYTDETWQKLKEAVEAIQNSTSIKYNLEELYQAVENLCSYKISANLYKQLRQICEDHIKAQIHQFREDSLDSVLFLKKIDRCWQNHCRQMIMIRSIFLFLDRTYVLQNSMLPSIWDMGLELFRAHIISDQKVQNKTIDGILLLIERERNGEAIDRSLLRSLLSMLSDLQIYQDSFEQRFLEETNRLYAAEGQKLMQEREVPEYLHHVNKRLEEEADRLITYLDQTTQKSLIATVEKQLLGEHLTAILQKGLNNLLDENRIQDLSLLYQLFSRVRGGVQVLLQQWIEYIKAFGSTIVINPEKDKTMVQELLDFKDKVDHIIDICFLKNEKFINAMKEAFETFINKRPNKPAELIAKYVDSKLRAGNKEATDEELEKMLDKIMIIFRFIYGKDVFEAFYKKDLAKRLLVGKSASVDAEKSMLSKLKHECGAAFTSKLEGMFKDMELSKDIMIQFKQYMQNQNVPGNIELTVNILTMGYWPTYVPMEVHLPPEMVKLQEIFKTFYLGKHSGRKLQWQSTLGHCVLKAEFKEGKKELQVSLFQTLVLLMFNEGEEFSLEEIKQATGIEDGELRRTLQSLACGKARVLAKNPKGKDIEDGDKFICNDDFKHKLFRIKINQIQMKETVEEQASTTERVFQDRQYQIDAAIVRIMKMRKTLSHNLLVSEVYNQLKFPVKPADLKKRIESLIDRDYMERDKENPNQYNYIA
# UniProt Q16531: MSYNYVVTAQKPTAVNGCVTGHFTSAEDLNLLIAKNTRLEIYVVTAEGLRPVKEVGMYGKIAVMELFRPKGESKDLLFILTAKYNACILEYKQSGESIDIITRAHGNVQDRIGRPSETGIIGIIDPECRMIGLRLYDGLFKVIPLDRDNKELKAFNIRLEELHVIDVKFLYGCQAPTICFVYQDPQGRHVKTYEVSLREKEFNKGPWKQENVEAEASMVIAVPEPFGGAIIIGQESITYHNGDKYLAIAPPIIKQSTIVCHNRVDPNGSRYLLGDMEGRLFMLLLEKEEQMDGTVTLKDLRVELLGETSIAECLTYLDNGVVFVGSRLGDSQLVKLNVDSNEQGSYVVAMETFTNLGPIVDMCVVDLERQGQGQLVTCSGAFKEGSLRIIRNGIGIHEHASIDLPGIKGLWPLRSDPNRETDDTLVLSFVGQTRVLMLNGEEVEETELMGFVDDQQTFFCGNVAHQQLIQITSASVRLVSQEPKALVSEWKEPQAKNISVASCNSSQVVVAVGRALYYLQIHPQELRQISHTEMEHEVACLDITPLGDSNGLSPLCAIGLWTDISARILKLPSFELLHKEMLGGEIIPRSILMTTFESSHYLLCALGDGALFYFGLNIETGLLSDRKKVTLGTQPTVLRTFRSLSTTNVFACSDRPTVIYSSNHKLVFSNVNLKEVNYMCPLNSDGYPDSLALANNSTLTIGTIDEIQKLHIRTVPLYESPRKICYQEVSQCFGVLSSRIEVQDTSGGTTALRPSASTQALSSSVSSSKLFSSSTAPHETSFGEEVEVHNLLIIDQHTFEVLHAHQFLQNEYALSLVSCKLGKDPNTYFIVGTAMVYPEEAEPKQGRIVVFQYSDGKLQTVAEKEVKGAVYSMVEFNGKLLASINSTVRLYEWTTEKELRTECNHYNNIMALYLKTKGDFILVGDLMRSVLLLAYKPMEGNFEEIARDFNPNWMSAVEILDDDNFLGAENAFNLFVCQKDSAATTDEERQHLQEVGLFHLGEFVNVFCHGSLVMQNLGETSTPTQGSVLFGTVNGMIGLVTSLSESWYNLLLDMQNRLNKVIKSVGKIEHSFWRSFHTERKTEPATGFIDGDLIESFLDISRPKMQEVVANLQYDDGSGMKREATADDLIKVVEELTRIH
# No constants are given. Whether binding was seen depends on the method and setting. In cells and extracts the contact can be indirect. Some results given as binding are weak or reduced against the parent protein; the word gives no strength.
# Key:
# [1] = biological target: CUL4A (human (endogenous in HCT-116)) (UniProt Q13619); experiment: co-IP; HCT-116 cells treated with 0, 0.2, 2 or 20 μM NSC1892 for 6 hrs, lysed in RIPA buffer; immunoprecipitation of endogenous proteins with anti-CUL4A or anti-CUL4B and protein A agarose; immunoblot
# [2] = biological target: CUL4B (human (endogenous in HCT-116)) (UniProt Q13620); experiment: as above
Molecule,binding [1],binding [2]
DDB1 (from UniProt Q16531 1-1140),–,binds
"DCAF4 (protein, UniProt Q8WV16 1-495) MNKSRWQSRRRHGRRSHQQNPWFRLRDSEDRSDSRAAQPAHDSGHGDDESPSTSSGTAGTSSVPELPGFYFDPEKKRYFRLLPGHNNCNPLTKESIRQKEMESKRLRLLQEEDRRKKIARMGFNASSMLRKSQLGFLNVTNYCHLAHELRLSCMERKKVQIRSMDPSALASDRFNLILADTNSDRLFTVNDVKVGGSKYGIINLQSLKTPTLKVFMHENLYFTNRKVNSVCWASLNHLDSHILLCLMGLAETPGCATLLPASLFVNSHPGIDRPGMLCSFRIPGAWSCAWSLNIQANNCFSTGLSRRVLLTNVVTGHRQSFGTNSDVLAQQFALMAPLLFNGCRSGEIFAIDLRCGNQGKGWKATRLFHDSAVTSVRILQDEQYLMASDMAGKIKLWDLRTTKCVRQYEGHVNEYAYLPLHVHEEEGILVAVGQDCYTRIWSLHDARLLRTIPSPYPASKADIPSVAFSSRLGGSRGAPGLLMAVGQDLYCYSYS",binds,binds

# Now from value to molecule:
binding [1],binding [2],Molecule
binds,–,CUL4B (from UniProt Q13620 1-913)
–,binds,CUL4A (from UniProt Q13619 1-759)
